Patent US20240344128A1, “IDENTIFICATION AND ELIMINATION OF DAMAGED AND/OR SENESCENT CELLS” (FUNDACIÓN DEL SECTOR PÜBLICO ESTATAL CENTRO NACIONAL DE …, priority 2017, published 2024)
For at least one compound, name, drawing or mass did not settle the structure.

Assays:
SK-Mel-103 cells = assay: 53BP1 immunofluorescence (DNA double-strand breaks); format: cell-based, human; conditions: 7 days
Protocol: SK-Mel-103 cells were seeded at 50% confluency on round 12 mm diameter coverslips (Marienfeld #0111520) previously placed inside 24 well plates. The following day, cells were treated with the senescence-inducing agents: 2 μM Palbociclib, […], 1 μM Nutlin and 6×10^−3 units/ml Bleomycin. Treated cells were not further split and their media was not changed for the duration of the treatment (7 days). Control cells were seeded similarly to treated, cells 24-48 hours prior the beginning of the procedure. Seven days after addition of the senescence-inducing agents, control and treated cells were washed with 1×PBS and Fixed on 2% paraformaldehyde-PBS for 10 minutes. The cells were then permeabilized with 0.25% Triton-PBS for 5 minutes, washed twice with 1×PBS and blocked with 5% BSA-PBS for 30 minutes. Next, the cells were incubated for 30 minutes with anti-53BP1 antibody (Abcam #ab172580) previously diluted 1:100 in blocking buffer (5% BSA-PBS), washed 3 times for 10 minutes with 1X PBS and incubated in the dark for 30 additional minutes with the secondary antibody: goat anti-rabbit Alexa Fluor 546 (ThermoFisher #A-11010) diluted 1:400 in blocking buffer. Finally, the cells were washed again 3 times for 10 minutes with 1×PBS and incubated with DAPI (Sigma #D9542) 300 nM in 1×PBS for 10 minutes. All the incubations and washed were performed at room temperature in 24 well plates. […]

PD-L2 mRNA [1] = assay: PD-L1 and PD-L2 mRNA by quantitative RT-PCR in human tumor cell lines; format: cell-based; conditions: senescent SK-Mel-103, SCC38 and SCC42B cells; relative to untreated cells
Protocol: Treated cells were not further split and their media was not changed for the duration of the treatment. Control cells were split every 3-4 days as previously described. One week after the start of the treatment, total RNA was isolated from control and treated cells with TRI Reagent (Sigma-Aldrich #T9424) following the manufacturer instructions. The isolated RNA was quantified using a nanodrop machine NanoVue (GE Healthcare). cDNA synthesis was performed with 2-7 μg of total RNA using the “iScript Advanced cDNA Synthesis kit” from BIO-RAD (#1725037). Quantitative real-time PCR was carried out with diluted cDNA (1:10) and “GoTaq qPCR Master Mix” (Promega A6002). Reactions were performed in triplicate in a 15 μl volume reaction mix prepared as follow: 7.5 μl 2X GoTaq qPCR Master Mix; 0.6 μl of pre-mixed primers (10 μM forward primer and 10 μM reverse primer); 1.9 μl nuclease-free water and 5 μl template cDNA (previously diluted 1:10). The qRT-PCR reaction was performed on a 7500 Fast Real-Time PCR System (Applied Biosystems) using “MicroAmp Fast Optical 96-well reaction plate with barcode” (Thermo Fisher #4346906) and “MicroAmp Optical adhesive film” (Thermo Fisher #4311971). […]

PD-L2 mRNA [2] = assay: PD-L2 mRNA in mouse melanoma cell lines B16F1 and B16F10; format: cell-based; conditions: B16F1 and B16F10 cells; data not shown
[3] = test system: SK-Mel-103, UT-SCC-38 and UT-SCC-42B cells; assay: SA-β gal / senescent response in human tumor cell lines; format: cell-based; conditions: prolonged treatment (2 μM, 7 days); SK-Mel-103, SCC38 and SCC42B cell lines
Protocol: SK-Mel-103, UT-SCC-38 and UT-SCC-42B the cell lines were maintained in DMEM (Gibco) supplemented with 10% fetal bovine serum (Gibco) with antimycotic-antibiotic (Gibco), and incubated in 20% O2 sand 5% CO2 at 37° C. SK-Mel-103 and UT-SCC-42B cells were split 1:10 every 3-4 days. UT-SCC-38 were split 1:3 every 3-4 days.
Eight days before the assay 20.000 SK-Mel-103 cells and 40.000 UT-SCC-38 and UT-SCC-42B cells were seeded into 6 well tissue culture plates (Falcon). The next day cells were treated with 2 μM Palbociclib. SK-Mel-103 cells were also treated with 10 nM Doxorubicin, 1 μM Nutlin or 6×10^−3 units/ml Bleomycin. All the cells were incubated in the presence of the senescence-inducing agents for at least 7 days without changing the media. Control cells were seeded in 6 well plates 24-48 hours prior the SA-β gal assay.
SA-β galactosidase activity was assessed with the β-Galactosidase Staining Kit from Cell Signaling (#9860) following the manufactured instructions with one single variation: the pH of the “Staining Solution” (supplemented with buffers A and B and X-gal) was carefully adjusted to 6.

SK-Mel-103 xenografts = SK-Mel-103 xenografts in nu/nu mice; format: in vivo, mouse; conditions: oral gavage
PD-L2 mRNA [4] = assay: Doxorubicin-induced PD-L2 mRNA in C2C12 cells with enzymatic inhibitors; format: cell-based, mouse; conditions: 500 nM doxorubicin, 48 hours
Protocol: C2C12 cells (FIG. 9) were treated with 500 nM doxorubicin for 48 hours in the presence or absence of the following inhibitors at the indicated concentrations: IKKi (50 μM), PIMi (1 μM), rotenone (1 μM), JAKi (3 μM), rapamycin (50 nM) and metformin (5 mM) or cultured in pyruvate-depleted media (FIG. 9A). In addition, C2C12 cells were incubated for 6 hours in the presence or absence of TLRs agonists (Mouse TLR1-9 Agonist kit. Invivogen): TLR1/2 agonist (Pam3CSK4, 300 ng/ml), TLR2 agonist (HKLM, 10^8 cells/ml), TLR3 agonist (Poly (I:C) HMW and Poly (I:C) LMW, 10 μg/ml), TLR4 agonist (LPS-EK, 10 μg/ml), TRL5 agonist (FLA-ST, 1 μg/ml), TRL6/2 agonist (FSL-1, 100 ng/ml), TRL7 agonist (ssRNA40, 5 μg/ml) and TLR9 agonist (ODN1826, 5 μM). Total RNA was isolated using TRI Reagent (Sigma-Aldrich #T9424) according to the manufacturer's instructions.
The isolated RNA was quantified using a nanodrop machine NanoVue (GE Healthcare). cDNA synthesis was performed with 2-7 μg of total RNA using the “iScript Advanced cDNA Synthesis kit” from BIO-RAD (#1725037). Quantitative real-time PCR was carried out with diluted cDNA (1:10) and “GoTaq qPCR Master Mix” (Promega A6002). […]

senescent cells = conditions: Dasatinib and Quercetin used in combination; aged, progeroid and irradiation-exposed mice; cited from earlier work

**Q.** With `CC(=O)c1c(C)c2cnc(Nc3ccc(N4CCNCC4)cn3)nc2n(C2CCCC2)c1=O` [palbociclib, Palbociclib] as the molecule, how does the “DNA damage (53BP1 foci)” value (SK-Mel-103 cells) read?
**A.** Its value is “absence of 53BP1 foci in the chromatin”.

**Q.** What about the “PD-L2 and PD-L1 mRNA levels” value (PD-L2 mRNA [1]) of the same molecule?
**A.** Its value is “up-regulation of PD-L2 but not PD-L1 mRNA levels”.

**Q.** And the “PD-L2 mRNA” value (PD-L2 mRNA [2])?
**A.** Its value is “PD-L2 mRNA up-regulation”.

**Q.** And the “senescent response (increased size and flat morphology, cell cycle arrest and increased SA-β gal activity)” value [3]?
**A.** The value was “induced phenotypic changes consistent with a senescent response”.

**Q.** What about the “PD-L2 protein levels in tumors (Western blotting)” value (SK-Mel-103 xenografts) of the same molecule?
**A.** Its value is “PD-L2 protein levels are also increased”.

**Q.** What about the growth of xenografts (SK-Mel-103 xenografts; 100 mg/kg) of the same molecule?
**A.** The growth of xenografts was “halt the growth of mouse xenografts”.

**Q.** What about the “senescent response (SA-β galactosidase staining of whole tumors and tumor sections)” value (SK-Mel-103 xenografts; 100 mg/kg) of the same molecule?
**A.** Its value is “induced a strong senescent response”.

**Q.** What about the “PD-L2 mRNA in xenografts” value (SK-Mel-103 xenografts; relative to vehicle-treated tumours) of the same molecule?
**A.** The value was “PD-L2 mRNA was selectively up-regulated”.

**Q.** For `CO[C@H]1C[C@@H]2CC[C@@H](C)[C@@](O)(O2)C(=O)C(=O)N2CCCC[C@H]2C(=O)O[C@H]([C@H](C)C[C@@H]2CC[C@@H](O)[C@H](OC)C2)CC(=O)[C@H](C)/C=C(\C)[C@@H](O)[C@@H](OC)C(=O)[C@H](C)C[C@H](C)/C=C/C=C/C=C/1C` [rapamycin, Rapamycin], which PD-L2 induction (PD-L2 mRNA [4]) is on record?
**A.** Its PD-L2 induction is “prevented PD-L2 induction”.

**Q.** For `Cc1nc(Nc2ncc(C(=O)Nc3c(C)cccc3Cl)s2)cc(N2CCN(CCO)CC2)n1` [Dasatinib], which “number of damaged and/or senescent cells” value (senescent cells) is on record?
**A.** The value was “reduced the number of damaged and/or senescent cells”.
